Test results: publication PMC4449194
Results are given in words; binding and its absence hold for the method and conditions named. Binding seen in cells or lysates may run through a third protein. Some binding calls cover weakened binding; strength is not graded here. For some assays here: Tags and fused reporters may be left off the sequences shown.

By UniProt entry, the sequences of proteins in these tests, tags left out.
UniProt Q96EB6: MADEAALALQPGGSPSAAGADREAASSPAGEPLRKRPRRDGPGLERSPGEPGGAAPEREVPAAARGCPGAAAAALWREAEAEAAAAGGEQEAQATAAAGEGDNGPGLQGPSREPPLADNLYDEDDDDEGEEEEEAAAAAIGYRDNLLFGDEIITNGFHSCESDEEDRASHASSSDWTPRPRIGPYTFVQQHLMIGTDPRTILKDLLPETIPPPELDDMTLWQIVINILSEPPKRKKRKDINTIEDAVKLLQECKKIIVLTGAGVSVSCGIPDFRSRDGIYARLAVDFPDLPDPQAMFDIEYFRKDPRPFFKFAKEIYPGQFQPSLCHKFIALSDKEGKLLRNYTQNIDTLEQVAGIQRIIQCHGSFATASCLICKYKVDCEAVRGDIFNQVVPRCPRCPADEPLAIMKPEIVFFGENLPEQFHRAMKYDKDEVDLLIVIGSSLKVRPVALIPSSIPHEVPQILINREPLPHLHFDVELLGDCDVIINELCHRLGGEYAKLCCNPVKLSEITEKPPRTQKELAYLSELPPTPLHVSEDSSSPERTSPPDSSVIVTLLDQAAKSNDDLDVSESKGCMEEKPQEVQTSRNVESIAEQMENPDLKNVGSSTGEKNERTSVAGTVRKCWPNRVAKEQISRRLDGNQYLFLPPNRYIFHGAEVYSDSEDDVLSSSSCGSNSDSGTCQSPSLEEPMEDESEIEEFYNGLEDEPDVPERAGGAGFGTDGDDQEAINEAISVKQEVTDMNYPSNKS
UniProt P20226: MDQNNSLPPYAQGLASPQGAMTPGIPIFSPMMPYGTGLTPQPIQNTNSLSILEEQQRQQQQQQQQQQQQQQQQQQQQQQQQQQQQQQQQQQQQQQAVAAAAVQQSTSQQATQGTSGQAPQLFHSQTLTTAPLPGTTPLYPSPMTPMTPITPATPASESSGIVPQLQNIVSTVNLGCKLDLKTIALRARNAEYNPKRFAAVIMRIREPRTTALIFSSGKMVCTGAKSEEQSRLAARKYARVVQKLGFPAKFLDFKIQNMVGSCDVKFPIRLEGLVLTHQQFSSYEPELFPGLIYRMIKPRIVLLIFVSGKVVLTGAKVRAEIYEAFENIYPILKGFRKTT

T1: Flag-hTAFI110/T852A (stable HeLa line) (human) (UniProt Q15572)
T1 sequence: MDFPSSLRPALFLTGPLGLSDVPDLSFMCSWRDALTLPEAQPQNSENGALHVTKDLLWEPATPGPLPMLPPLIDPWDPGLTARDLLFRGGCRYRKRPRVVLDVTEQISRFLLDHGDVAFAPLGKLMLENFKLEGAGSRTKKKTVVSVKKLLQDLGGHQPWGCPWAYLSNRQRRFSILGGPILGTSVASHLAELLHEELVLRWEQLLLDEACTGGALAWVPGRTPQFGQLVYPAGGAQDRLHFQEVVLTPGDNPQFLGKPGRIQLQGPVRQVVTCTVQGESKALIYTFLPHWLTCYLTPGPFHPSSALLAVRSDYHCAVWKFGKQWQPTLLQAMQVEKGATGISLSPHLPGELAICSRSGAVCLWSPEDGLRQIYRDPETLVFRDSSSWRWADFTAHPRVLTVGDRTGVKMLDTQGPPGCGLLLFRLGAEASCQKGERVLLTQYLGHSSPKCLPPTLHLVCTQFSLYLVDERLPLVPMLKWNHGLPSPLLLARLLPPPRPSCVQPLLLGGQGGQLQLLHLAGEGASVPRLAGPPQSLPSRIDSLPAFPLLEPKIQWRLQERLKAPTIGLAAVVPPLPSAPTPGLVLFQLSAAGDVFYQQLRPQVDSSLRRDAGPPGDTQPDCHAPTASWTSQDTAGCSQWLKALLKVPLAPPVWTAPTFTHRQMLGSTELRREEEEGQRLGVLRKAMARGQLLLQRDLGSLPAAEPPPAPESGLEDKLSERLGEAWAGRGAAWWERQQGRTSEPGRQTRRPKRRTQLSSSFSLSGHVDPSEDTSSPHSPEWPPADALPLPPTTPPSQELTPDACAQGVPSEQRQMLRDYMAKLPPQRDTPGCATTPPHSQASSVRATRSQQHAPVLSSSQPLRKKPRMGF

T2: Flag-hTAFI110/WT (stable HeLa line) (human) (UniProt Q15572)
T2 sequence: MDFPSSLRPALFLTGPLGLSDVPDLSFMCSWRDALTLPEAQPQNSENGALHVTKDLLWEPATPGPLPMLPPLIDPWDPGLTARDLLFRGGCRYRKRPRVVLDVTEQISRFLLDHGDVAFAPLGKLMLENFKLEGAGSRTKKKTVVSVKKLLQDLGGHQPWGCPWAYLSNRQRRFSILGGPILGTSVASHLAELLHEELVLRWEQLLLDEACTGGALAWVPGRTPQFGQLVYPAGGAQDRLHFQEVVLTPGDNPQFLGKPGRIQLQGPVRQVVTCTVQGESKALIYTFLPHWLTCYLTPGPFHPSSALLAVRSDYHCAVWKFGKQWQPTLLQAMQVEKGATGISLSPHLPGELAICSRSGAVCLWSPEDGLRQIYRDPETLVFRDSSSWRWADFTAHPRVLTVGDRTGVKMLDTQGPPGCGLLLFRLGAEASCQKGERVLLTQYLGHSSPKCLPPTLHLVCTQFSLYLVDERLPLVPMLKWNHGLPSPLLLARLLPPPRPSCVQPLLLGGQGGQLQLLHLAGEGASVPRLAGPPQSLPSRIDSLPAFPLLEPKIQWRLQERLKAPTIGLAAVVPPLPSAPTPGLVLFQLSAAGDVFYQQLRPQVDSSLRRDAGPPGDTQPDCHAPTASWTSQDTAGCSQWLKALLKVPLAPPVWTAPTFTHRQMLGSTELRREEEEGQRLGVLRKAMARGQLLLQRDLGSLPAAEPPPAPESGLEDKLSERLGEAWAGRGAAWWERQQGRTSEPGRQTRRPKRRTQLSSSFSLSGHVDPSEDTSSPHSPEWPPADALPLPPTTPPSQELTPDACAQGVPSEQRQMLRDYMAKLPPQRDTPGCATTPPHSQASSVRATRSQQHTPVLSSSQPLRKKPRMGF

T3: GST-hCdc14B (human) (UniProt O60729)
T3 sequence: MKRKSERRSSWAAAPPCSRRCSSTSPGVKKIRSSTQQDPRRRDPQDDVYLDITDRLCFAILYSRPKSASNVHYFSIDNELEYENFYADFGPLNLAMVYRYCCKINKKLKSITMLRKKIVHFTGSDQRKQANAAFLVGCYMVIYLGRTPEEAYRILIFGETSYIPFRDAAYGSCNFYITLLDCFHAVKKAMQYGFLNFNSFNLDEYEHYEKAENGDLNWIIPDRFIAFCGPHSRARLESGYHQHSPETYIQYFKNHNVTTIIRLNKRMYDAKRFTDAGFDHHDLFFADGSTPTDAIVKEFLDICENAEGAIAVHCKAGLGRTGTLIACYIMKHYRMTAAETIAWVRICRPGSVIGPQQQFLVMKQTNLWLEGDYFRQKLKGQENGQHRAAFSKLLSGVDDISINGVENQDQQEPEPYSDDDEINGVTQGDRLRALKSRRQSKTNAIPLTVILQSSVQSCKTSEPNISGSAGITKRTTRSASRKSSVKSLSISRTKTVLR


Assays:
[1] = target: T1, Flag-hTAFI110/T852A (stable HeLa line) (human); assay: co-IP; Flag-hTAFI110 (WT or T852A) immunoprecipitated from stable HeLa lines, nuclear lysate, 250 mM KCl; blots with anti-TAFI68 and anti-TBP
[2] = target: T2, Flag-hTAFI110/WT (stable HeLa line) (human); assay: as above
GFP-SIRT1 = GFP-SIRT1 (UniProt Q96EB6); assay: co-IP; Flag-hTAFI68 co-expressed with GFP-tagged Sirtuins in HEK293T; lysis in 300 mM KCl, 20 mM Tris-HCl pH 7.9, 5 mM MgCl2, 0.2 mM EDTA, 0.5% Triton X-100; capture on GFP-Trap beads 4 h at 4°C; blot with anti-TAFI68
GST-SIRT1 = GST-SIRT1 (UniProt Q96EB6); assay: pull-down; 2 ug GST-tagged protein immobilised on Glutathione-Sepharose 4B, incubated with in vitro synthesized 35S-labeled proteins for 4 h at 4°C in 120 mM KCl, 20 mM Tris-HCl pH 7.9, 5 mM MgCl2, 0.2 mM EDTA, 10% glycerol, 0.2% NP-40; SDS-PAGE and PhosphorImaging; only the target purified
GST-hCdc14B (human) = target: T3, GST-hCdc14B (human); assay: as above

Row | Molecule | binding [1] | binding [2] | binding (GST-SIRT1) | other results
1 | Flag-hTAFI68 (HEK293T) (protein, UniProt Q53T94 1-588) MDLEEAEEFKERCTQCAAVSWGLTDEGKYYCTSCHNVTERYQEVTNTDLIPNTQIKALNRGLKKKNNTEKGWDWYVCEGFQYILYQQAEALKNLGVGPELKNDVLHNFWKRYLQKSKQAYCKNPVYTTGRKPTVLEDNLSHSDWASEPELLSDVSCPPFLESGAESQSDIHTRKPFPVSKASQSETSVCSGSLDGVEYSQRKEKGIVKMTMPQTLAFCYLSLLWQREAITLSDLLRFVEEDHIPYINAFQHFPEQMKLYGRDRGIFGIESWPDYEDIYKKTVEVGTFLDLPRFPDITEDCYLHPNILCMKYLMEVNLPDEMHSLTCHVVKMTGMGEVDFLTFDPIAKMAKTVKYDVQAVAIIVVVLKLLFLLDDSFEWSLSNLAEKHNEKNKKDKPWFDFRKWYQIMKKAFDEKKQKWEEARAKYLWKSEKPLYYSFVDKPVAYKKREMVVNLQKQFSTLVESTATAGKKSPSSFQFNWTEEDTDRTCFHGHSLQGVLKEKGQSLLTKNSLYWLSTQKFCRCYCTHVTTYEESNYSLSYQFILNLFSFLLRIKTSLLHEEVSLVEKKLFEKKYSVKRKKSRSKKVRRH |  |  |  | binding (GFP-SIRT1): binds
2 | 35S-labeled hTAFI68 (protein, UniProt Q53T94 1-588, ^35S-labeled) MDLEEAEEFKERCTQCAAVSWGLTDEGKYYCTSCHNVTERYQEVTNTDLIPNTQIKALNRGLKKKNNTEKGWDWYVCEGFQYILYQQAEALKNLGVGPELKNDVLHNFWKRYLQKSKQAYCKNPVYTTGRKPTVLEDNLSHSDWASEPELLSDVSCPPFLESGAESQSDIHTRKPFPVSKASQSETSVCSGSLDGVEYSQRKEKGIVKMTMPQTLAFCYLSLLWQREAITLSDLLRFVEEDHIPYINAFQHFPEQMKLYGRDRGIFGIESWPDYEDIYKKTVEVGTFLDLPRFPDITEDCYLHPNILCMKYLMEVNLPDEMHSLTCHVVKMTGMGEVDFLTFDPIAKMAKTVKYDVQAVAIIVVVLKLLFLLDDSFEWSLSNLAEKHNEKNKKDKPWFDFRKWYQIMKKAFDEKKQKWEEARAKYLWKSEKPLYYSFVDKPVAYKKREMVVNLQKQFSTLVESTATAGKKSPSSFQFNWTEEDTDRTCFHGHSLQGVLKEKGQSLLTKNSLYWLSTQKFCRCYCTHVTTYEESNYSLSYQFILNLFSFLLRIKTSLLHEEVSLVEKKLFEKKYSVKRKKSRSKKVRRH |  |  | binds | 
3 | 35S-labeled hTAFI110 (protein, UniProt Q15572-1 1-869, ^35S-labeled) MDFPSSLRPALFLTGPLGLSDVPDLSFMCSWRDALTLPEAQPQNSENGALHVTKDLLWEPATPGPLPMLPPLIDPWDPGLTARDLLFRGGCRYRKRPRVVLDVTEQISRFLLDHGDVAFAPLGKLMLENFKLEGAGSRTKKKTVVSVKKLLQDLGGHQPWGCPWAYLSNRQRRFSILGGPILGTSVASHLAELLHEELVLRWEQLLLDEACTGGALAWVPGRTPQFGQLVYPAGGAQDRLHFQEVVLTPGDNPQFLGKPGRIQLQGPVRQVVTCTVQGESKALIYTFLPHWLTCYLTPGPFHPSSALLAVRSDYHCAVWKFGKQWQPTLLQAMQVEKGATGISLSPHLPGELAICSRSGAVCLWSPEDGLRQIYRDPETLVFRDSSSWRWADFTAHPRVLTVGDRTGVKMLDTQGPPGCGLLLFRLGAEASCQKGERVLLTQYLGHSSPKCLPPTLHLVCTQFSLYLVDERLPLVPMLKWNHGLPSPLLLARLLPPPRPSCVQPLLLGGQGGQLQLLHLAGEGASVPRLAGPPQSLPSRIDSLPAFPLLEPKIQWRLQERLKAPTIGLAAVVPPLPSAPTPGLVLFQLSAAGDVFYQQLRPQVDSSLRRDAGPPGDTQPDCHAPTASWTSQDTAGCSQWLKALLKVPLAPPVWTAPTFTHRQMLGSTELRREEEEGQRLGVLRKAMARGQLLLQRDLGSLPAAEPPPAPESGLEDKLSERLGEAWAGRGAAWWERQQGRTSEPGRQTRRPKRRTQLSSSFSLSGHVDPSEDTSSPHSPEWPPADALPLPPTTPPSQELTPDACAQGVPSEQRQMLRDYMAKLPPQRDTPGCATTPPHSQASSVRATRSQQHTPVLSSSQPLRKKPRMGF |  |  | binds | binding (GST-hCdc14B (human)): binds

Continued, in another order:

Row | binding [1] | binding [2] | binding (GST-SIRT1) | Molecule | other results
4 | binds | binds |  | endogenous TBP (from UniProt P20226 1-339) | 
5 | binds | binds |  | endogenous hTAFI68 (protein, UniProt Q53T94 1-588) MDLEEAEEFKERCTQCAAVSWGLTDEGKYYCTSCHNVTERYQEVTNTDLIPNTQIKALNRGLKKKNNTEKGWDWYVCEGFQYILYQQAEALKNLGVGPELKNDVLHNFWKRYLQKSKQAYCKNPVYTTGRKPTVLEDNLSHSDWASEPELLSDVSCPPFLESGAESQSDIHTRKPFPVSKASQSETSVCSGSLDGVEYSQRKEKGIVKMTMPQTLAFCYLSLLWQREAITLSDLLRFVEEDHIPYINAFQHFPEQMKLYGRDRGIFGIESWPDYEDIYKKTVEVGTFLDLPRFPDITEDCYLHPNILCMKYLMEVNLPDEMHSLTCHVVKMTGMGEVDFLTFDPIAKMAKTVKYDVQAVAIIVVVLKLLFLLDDSFEWSLSNLAEKHNEKNKKDKPWFDFRKWYQIMKKAFDEKKQKWEEARAKYLWKSEKPLYYSFVDKPVAYKKREMVVNLQKQFSTLVESTATAGKKSPSSFQFNWTEEDTDRTCFHGHSLQGVLKEKGQSLLTKNSLYWLSTQKFCRCYCTHVTTYEESNYSLSYQFILNLFSFLLRIKTSLLHEEVSLVEKKLFEKKYSVKRKKSRSKKVRRH | 
